Data reported in the supplement of paper PMC10849652.
Some of the results follow.

The chains behind the UniProt entries cited, without tags or fusion partners. Where a name states a change or a piece, a line headed by the entry shows the natural chain unless it says otherwise.
UniProt Q13576: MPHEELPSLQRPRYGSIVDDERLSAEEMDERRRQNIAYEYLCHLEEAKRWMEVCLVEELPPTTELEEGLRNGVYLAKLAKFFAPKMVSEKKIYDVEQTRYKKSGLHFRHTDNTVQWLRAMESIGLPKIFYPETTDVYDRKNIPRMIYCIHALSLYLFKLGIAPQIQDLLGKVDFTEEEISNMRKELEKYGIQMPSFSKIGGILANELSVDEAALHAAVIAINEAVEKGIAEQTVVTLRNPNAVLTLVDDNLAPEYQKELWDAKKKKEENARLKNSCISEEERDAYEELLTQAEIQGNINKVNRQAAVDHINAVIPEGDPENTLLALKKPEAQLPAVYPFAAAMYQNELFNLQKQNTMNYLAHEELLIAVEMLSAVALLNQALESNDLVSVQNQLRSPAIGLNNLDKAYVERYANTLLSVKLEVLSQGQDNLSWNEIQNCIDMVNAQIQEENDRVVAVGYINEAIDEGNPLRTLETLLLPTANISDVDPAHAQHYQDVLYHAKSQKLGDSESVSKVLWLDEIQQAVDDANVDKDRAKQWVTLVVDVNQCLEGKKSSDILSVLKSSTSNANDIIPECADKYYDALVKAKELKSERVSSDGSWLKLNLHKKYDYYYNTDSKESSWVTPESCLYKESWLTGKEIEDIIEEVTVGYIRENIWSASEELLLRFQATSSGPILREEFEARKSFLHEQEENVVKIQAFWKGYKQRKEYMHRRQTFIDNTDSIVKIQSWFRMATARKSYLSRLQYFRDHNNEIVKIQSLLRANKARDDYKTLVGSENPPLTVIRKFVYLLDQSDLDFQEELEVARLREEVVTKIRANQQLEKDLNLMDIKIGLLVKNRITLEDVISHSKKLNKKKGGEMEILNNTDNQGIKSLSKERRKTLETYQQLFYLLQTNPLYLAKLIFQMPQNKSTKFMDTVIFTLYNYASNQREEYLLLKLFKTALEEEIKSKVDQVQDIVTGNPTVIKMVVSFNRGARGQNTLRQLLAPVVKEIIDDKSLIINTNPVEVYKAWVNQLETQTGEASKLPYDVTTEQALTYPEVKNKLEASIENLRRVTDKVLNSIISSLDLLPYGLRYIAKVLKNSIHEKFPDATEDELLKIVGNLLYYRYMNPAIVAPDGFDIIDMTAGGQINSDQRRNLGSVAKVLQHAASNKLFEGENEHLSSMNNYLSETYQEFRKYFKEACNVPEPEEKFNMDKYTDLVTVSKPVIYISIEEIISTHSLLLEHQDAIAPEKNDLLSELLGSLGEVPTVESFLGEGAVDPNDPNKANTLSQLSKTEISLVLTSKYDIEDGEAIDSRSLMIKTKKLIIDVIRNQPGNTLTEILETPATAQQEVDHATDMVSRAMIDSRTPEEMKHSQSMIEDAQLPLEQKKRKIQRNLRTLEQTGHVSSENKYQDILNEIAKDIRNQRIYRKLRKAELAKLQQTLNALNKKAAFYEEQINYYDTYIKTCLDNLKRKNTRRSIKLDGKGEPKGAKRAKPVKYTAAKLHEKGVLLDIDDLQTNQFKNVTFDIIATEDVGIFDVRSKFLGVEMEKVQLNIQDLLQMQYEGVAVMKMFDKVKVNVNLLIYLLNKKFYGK
UniProt Q5VWK5: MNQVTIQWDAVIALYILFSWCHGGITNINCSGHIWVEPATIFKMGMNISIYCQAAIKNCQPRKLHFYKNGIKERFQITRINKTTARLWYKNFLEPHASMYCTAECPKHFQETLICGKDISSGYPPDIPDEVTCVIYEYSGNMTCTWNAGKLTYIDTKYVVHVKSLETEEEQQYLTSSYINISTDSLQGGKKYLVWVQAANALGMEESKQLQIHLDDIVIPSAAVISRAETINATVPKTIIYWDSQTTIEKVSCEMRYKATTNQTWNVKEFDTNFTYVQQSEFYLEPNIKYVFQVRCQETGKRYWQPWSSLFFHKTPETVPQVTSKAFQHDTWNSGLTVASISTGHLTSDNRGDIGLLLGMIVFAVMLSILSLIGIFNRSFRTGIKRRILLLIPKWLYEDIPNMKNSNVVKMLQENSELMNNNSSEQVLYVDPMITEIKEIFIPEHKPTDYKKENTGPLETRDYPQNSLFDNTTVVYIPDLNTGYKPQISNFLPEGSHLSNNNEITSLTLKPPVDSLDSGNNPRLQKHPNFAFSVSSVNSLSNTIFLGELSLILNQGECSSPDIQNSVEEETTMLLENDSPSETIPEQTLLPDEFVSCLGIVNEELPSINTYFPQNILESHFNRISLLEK
UniProt P05161, whole entry, looked up: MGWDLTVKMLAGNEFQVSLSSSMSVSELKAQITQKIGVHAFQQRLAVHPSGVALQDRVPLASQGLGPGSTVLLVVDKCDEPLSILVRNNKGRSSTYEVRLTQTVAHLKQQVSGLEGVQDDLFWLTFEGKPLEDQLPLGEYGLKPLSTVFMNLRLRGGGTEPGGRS
UniProt Q13422: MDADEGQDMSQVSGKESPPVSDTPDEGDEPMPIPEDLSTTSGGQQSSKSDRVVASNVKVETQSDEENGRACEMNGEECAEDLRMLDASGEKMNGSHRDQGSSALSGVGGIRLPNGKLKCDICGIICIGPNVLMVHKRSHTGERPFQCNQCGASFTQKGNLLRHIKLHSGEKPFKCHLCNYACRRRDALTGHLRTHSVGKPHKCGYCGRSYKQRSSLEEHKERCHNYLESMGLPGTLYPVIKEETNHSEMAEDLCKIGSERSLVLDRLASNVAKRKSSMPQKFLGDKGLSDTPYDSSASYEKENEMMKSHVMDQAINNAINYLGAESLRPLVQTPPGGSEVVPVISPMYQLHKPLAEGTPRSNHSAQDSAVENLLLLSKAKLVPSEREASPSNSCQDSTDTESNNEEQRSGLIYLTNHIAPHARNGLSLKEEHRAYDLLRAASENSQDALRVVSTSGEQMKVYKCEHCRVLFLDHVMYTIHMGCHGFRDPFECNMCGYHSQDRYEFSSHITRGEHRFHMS
UniProt P53990, whole entry, looked up: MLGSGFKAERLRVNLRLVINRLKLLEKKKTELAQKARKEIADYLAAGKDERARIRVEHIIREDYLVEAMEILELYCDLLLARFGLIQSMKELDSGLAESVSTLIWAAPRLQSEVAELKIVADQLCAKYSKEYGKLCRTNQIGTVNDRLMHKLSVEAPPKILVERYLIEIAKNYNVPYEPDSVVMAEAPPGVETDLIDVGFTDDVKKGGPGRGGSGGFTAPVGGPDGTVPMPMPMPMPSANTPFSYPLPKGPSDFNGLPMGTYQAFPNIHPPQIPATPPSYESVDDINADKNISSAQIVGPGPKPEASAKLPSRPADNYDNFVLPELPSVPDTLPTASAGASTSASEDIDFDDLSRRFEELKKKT
UniProt O14732: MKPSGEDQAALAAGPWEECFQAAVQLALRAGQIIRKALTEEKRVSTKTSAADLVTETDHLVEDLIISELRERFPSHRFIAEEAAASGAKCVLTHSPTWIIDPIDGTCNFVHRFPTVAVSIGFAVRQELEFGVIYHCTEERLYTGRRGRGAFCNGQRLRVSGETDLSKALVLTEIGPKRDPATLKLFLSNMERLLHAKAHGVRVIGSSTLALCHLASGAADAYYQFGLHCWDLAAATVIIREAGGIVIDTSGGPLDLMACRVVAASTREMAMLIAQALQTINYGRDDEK
UniProt P49441: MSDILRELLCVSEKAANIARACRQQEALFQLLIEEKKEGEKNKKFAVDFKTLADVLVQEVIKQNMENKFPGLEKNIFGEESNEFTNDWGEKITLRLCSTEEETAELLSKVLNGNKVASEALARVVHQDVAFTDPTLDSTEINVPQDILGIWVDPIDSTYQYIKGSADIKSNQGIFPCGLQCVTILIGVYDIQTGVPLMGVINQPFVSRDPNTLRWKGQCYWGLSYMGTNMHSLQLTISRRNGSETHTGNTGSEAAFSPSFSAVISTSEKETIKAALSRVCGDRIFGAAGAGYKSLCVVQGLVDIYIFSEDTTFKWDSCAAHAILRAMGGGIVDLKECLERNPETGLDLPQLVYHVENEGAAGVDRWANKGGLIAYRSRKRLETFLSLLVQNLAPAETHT
UniProt O14920: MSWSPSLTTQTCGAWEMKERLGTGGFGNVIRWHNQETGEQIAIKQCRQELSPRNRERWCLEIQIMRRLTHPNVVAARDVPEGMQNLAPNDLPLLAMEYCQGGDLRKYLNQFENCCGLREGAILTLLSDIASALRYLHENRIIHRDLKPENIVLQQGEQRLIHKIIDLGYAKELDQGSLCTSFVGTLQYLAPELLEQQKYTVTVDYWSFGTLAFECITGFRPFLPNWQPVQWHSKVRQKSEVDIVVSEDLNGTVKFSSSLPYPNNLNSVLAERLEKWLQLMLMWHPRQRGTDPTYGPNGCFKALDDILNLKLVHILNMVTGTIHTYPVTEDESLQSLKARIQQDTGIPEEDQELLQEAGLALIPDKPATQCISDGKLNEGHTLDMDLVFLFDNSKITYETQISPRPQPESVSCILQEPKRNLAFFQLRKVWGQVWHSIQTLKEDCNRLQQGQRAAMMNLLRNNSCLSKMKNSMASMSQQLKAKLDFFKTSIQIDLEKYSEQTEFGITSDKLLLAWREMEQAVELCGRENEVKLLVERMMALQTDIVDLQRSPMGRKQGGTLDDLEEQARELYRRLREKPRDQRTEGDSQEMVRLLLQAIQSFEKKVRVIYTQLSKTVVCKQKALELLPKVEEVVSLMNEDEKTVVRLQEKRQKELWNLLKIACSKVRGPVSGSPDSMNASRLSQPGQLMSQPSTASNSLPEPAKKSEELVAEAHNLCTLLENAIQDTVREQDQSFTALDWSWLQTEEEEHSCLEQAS
UniProt Q96LB3: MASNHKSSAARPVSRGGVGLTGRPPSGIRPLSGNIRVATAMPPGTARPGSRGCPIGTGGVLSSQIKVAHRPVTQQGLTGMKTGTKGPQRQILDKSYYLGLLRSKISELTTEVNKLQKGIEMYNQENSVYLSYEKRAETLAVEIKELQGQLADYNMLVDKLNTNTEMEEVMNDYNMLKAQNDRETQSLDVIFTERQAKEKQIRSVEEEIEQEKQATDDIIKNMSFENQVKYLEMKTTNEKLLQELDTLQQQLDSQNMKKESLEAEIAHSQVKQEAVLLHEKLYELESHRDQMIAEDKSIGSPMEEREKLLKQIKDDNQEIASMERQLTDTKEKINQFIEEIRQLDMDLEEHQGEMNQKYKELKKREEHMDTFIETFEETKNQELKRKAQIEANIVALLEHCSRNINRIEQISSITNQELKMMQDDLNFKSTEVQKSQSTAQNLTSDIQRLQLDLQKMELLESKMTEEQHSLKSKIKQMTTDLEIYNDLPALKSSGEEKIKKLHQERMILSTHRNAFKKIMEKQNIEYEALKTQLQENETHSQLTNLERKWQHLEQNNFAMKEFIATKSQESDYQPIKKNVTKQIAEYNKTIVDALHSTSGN
UniProt Q8WZA9: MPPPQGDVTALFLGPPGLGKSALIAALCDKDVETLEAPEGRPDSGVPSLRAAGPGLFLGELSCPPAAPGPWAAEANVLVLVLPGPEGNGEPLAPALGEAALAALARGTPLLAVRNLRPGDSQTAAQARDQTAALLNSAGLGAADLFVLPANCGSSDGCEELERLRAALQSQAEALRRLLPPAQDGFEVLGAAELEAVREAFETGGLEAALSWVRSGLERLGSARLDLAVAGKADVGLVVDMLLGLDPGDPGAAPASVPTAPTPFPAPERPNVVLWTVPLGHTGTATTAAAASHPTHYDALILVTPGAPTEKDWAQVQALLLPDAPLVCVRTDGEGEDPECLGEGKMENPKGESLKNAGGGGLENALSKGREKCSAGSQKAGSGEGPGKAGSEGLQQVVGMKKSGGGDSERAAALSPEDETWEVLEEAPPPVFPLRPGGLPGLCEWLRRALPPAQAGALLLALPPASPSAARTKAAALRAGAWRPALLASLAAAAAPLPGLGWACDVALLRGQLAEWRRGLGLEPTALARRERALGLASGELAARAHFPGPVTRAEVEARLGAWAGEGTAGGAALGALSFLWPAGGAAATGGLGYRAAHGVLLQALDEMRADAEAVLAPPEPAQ
UniProt Q9H0C8: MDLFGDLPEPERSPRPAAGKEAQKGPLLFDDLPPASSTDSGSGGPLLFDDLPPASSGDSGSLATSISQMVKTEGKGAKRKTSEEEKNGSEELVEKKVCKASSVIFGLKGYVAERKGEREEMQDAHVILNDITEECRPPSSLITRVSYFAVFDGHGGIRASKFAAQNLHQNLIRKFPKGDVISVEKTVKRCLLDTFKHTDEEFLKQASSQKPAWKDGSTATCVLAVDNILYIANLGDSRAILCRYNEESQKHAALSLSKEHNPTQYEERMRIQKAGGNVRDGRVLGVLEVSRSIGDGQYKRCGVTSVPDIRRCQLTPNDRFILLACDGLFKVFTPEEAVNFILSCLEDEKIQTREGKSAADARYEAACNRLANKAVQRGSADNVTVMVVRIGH
UniProt Q96T52: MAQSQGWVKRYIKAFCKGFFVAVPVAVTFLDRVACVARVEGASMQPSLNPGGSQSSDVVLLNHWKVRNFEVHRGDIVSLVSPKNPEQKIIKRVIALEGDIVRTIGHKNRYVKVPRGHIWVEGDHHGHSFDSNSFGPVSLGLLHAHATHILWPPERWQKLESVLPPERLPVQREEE

Each target was assayed with CC1=C(SC2=C1C(=N[C@H](C3=NN=C(N32)C)CC(=O)N)C4=CC=C(C=C4)Cl)C (assay: log2 fold change, soluble protein after heating vs DMSO (PISA); higher = thermal stabilisation; K562 cells, 10 uM, 30 min; active = over 0.2 and 3.5 SD of the protein, either way, in both replicates (recomputed)).
How it was run: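 Thermal stability values are relative to control samples and come from duplicates. They are expressed as log2 fold changes. For measurement, K562 cells (2×10^6 cells/mL) received 10 μM compound for 30 min, and aliquots were heated for 3 min over 48°C-58°C, pooled, and extracted at 4°C in PBS with 0.5% NP-40. Soluble protein, the supernatant after 21,000xg for 90 min, was quantified by TMTpro 16plex LC-MS/MS with equalised channel sums.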

Target | log2 fold change
IQGAP2 (UniProt Q13576) | inactive: 0.013
ITPK1 (UniProt Q13572) | inactive: 0.092
IL23R (UniProt Q5VWK5) | inactive: 0.096
IMP3 (UniProt Q9NV31) | inactive: 0.033
IKBIP (UniProt Q70UQ0) | inactive: 0.007
ISY1 isoform 1 (UniProt Q9ULR0) | inactive: -0.021
ISG15 (UniProt P05161) | inactive: 0.075
ITFG2 (UniProt Q969R8) | inactive: 0.176
IKBKG isoform 2 (UniProt Q9Y6K9) | inactive: -0.04
ILF2 (UniProt Q12905) | inactive: -0.078
IKZF1 isoform 2 (UniProt Q13422) | inactive: 0.217
IPO7 (UniProt O95373) | inactive: 0.031
IST1 isoform 5 (UniProt P53990) | inactive: 0.023
IMPA2 (UniProt O14732) | inactive: -0.052
IDH1 (UniProt O75874) | inactive: 0.006
INPP1 (UniProt P49441) | inactive: -0.002
IKBKB (UniProt O14920) | inactive: -0.32
IKZF1 (UniProt Q13422) | inactive: 0.05
IFT74 (UniProt Q96LB3) | inactive: 0.11
IRGQ (UniProt Q8WZA9) | inactive: 0.027
ILKAP (UniProt Q9H0C8) | inactive: 0.076
IPO4 isoform 2 (UniProt Q8TEX9) | inactive: -0.051
IMMP2L (UniProt Q96T52) | inactive: 0.045
